Assay results taken from paper PMC11552376, “Specific binding between Arabidopsis thaliana phytochrome-interacting factor 3 (AtPIF3) bHLH and G-box originated prior to embryophyte emergence” (BMC Plant Biology, 2024).
Where a chain is given by its changes, count along the chain named. The exact form of at least one protein or probe is not confirmed. Weaker means in comparison with the reference protein, sequence or condition of that experiment. Where a protein sequence is shown, tags need not be part of it.

Protein sequences, listed by entry. Tags and fused reporters are not part of them. Lines headed by an entry give the natural chain unless they say otherwise; changes in a name come on top.
UniProt O80536: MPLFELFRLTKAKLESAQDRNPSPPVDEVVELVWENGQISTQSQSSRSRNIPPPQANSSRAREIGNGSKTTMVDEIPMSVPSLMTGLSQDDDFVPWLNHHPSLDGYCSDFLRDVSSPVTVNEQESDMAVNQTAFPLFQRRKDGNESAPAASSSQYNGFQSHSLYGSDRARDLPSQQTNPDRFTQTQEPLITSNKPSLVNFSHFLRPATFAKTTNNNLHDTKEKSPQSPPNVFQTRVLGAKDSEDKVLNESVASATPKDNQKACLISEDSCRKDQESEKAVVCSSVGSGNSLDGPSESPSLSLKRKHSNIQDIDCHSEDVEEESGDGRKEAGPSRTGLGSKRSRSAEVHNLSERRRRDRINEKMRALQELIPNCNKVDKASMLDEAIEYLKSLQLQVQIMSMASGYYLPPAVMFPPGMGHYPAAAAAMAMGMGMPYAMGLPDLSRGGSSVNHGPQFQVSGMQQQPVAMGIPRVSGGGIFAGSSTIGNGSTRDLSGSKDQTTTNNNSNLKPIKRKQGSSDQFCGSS

Columns and labels:
[1] = target: T1, AtPIF3-bHLH H348A (Arabidopsis thaliana) (UniProt O80536); assay: EMSA; conditions: unbound DNA remains at DNA:protein 1:10; fEMSA: 30 mM HEPES, 500 mM NaCl, pH 7.4, on ice 30 min, 3 uM probe, 10% native gel in 0.5x TBE at 4 C; recombinant protein; protein details: C-terminal His6; label: 5' fluorescein; only the site is given
T1 sequence (looked up, limits assumed): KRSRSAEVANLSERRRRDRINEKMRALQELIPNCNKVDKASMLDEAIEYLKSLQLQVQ

[2] = target: T2, AtPIF3-bHLH R356A (Arabidopsis thaliana) (UniProt O80536); assay: EMSA; conditions: unbound DNA remains at DNA:protein 1:10; fEMSA: 30 mM HEPES, 500 mM NaCl, pH 7.4, on ice 30 min, 3 uM probe, 10% native gel in 0.5x TBE at 4 C; recombinant protein; protein details: C-terminal His6; label: 5' fluorescein; only the site is given
T2 sequence (looked up, limits assumed): T1 sequence (looked up, limits assumed) with A9H, R17A

Sequence: GCATTCACGTGAAGT (double strand) [pPIL1 G-box]
- binding result [1]: binds more weakly
- binding result [2]: binds more weakly
